Experimental data reported in paper doi:10.1101/2020.06.22.164350.
Results are given in words; binding and its absence hold for the method and conditions named. In cells and extracts the contact can be indirect. Some entries that bind do so weakly or less than the wild type.

The chains behind the UniProt entries cited, without tags or fusion partners.
UniProt Q13547: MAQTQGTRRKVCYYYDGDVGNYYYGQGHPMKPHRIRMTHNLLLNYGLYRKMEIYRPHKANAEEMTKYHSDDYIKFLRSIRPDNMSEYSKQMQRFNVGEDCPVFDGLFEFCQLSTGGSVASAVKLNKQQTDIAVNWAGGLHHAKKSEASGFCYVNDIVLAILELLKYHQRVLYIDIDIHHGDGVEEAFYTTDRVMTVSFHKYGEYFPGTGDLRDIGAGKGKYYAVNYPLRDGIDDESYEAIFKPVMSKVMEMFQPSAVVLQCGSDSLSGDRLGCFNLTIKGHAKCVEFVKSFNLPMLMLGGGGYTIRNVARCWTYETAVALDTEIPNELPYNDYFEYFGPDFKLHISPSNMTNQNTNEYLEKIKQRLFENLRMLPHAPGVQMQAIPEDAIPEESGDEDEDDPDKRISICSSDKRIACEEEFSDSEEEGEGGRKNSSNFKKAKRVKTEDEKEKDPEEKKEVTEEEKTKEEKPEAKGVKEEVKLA

Experiments:
[1] = molecular target: HDAC1 (human (endogenous in THP-1)) (UniProt Q13547); test: co-IP
[2] = molecular target: T1, Sin3a (human (endogenous in THP-1)) (UniProt Q96ST3); test: co-IP
T1 sequence: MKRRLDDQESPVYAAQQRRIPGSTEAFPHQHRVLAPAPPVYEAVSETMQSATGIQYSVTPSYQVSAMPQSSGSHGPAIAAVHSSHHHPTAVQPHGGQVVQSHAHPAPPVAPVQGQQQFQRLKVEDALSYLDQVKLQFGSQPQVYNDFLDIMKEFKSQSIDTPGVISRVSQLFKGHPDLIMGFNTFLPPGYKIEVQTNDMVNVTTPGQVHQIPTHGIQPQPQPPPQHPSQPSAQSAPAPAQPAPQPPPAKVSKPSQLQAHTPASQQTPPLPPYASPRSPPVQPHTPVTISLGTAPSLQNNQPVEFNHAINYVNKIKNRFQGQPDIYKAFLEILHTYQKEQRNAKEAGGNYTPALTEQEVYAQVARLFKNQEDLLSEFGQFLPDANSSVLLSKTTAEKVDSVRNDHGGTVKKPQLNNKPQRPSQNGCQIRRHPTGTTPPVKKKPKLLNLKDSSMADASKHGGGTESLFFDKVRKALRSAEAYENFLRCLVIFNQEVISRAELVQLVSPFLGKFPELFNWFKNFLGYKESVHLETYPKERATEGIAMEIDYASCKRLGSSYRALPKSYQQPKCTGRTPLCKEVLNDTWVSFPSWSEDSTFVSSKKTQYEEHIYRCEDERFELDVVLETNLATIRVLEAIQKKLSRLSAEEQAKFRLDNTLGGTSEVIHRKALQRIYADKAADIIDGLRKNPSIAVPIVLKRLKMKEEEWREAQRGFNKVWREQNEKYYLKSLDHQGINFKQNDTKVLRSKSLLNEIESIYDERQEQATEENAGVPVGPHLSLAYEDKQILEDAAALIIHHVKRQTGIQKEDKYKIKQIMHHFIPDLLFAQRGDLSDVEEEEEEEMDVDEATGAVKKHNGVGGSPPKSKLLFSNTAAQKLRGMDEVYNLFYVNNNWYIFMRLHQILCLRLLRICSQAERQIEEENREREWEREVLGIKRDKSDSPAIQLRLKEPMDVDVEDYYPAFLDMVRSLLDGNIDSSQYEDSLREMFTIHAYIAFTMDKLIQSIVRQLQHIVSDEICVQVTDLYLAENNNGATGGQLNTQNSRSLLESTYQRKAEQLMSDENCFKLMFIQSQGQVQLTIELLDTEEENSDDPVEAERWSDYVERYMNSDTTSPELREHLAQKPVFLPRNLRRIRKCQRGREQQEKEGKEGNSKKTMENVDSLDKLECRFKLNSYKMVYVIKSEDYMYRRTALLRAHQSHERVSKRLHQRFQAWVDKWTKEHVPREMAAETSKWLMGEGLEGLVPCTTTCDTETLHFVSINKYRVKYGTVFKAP

B1: ZBTB25 (protein, UniProt P24278 1-435)
chain: MDTASHSLVLLQQLNMQREFGFLCDCTVAIGDVYFKAHRAVLAAFSNYFKMIFIHQTSECIKIQPTDIQPDIFSYLLHIMYTGKGPKQIVDHSRLEEGIRFLHADYLSHIATEMNQVFSPETVQSSNLYGIQISTTQKTVVKQGLEVKEAPSSNSGNRAAVQGDHPQLQLSLAIGLDDGTADQQRACPATQALEEHQKPPVSIKQERCDPESVISQSHPSPSSEVTGPTFTENSVKIHLCHYCGERFDSRSNLRQHLHTHVSGSLPFGVPASILESNDLGEVHPLNENSEALECRRLSSFIVKENEQQPDHTNRGTTEPLQISQVSLISKDTEPVELNCNFSFSRKRKMSCTICGHKFPRKSQLLEHMYTHKGKSYRYNRCQRFGNALAQRFQPYCDSWSDVSLKSSRLSQEHLDLPCALESELTQENVDTILVE
[1]
  binding: binds
[2]
  binding: binds
